# Assay results: PubChem BioAssay AID2685 (National Center for Advancing Translational Sciences (NCATS), 2010)
# In all, about 320,000 compounds went through this assay and about 2,100 (0.66%) were called active. Inconclusive results, whose numbers are uncertain, are shown with a selection of clear calls. Calls come from the whole dose curve; as a rule, active = well fitted inhibition curve with a large enough effect in the signal ratio, with a control signal flat (not every such curve was filed as active); inconclusive = small, poorly fitted or top-dose-only effect, or effect the other way, or a change in a side signal; inactive = flat fitted curve, though single readings scatter; the % refers to the signal ratio. Potencies of inconclusive entries are doubtful fits and often do not repeat.
# Assay: qHTS Assay for Lipid Storage Modulators in Drosophila S3 Cells
# Conditions: BODIPY lipid droplet fluorescence, 18-24 h, cells fed with added oleic acid; lipid storage change, negative = inhibition: at 46.1 µM (top of the series) unless noted
# In short: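 Drosophila S3 cells loaded with oleic acid (400 uM, as added) and compounds at several concentrations; lipid droplets imaged by 488-nm laser-scanning cytometry, 500–530 nm intensity and object ratio to cell channel. Percent activity normalized to 20 uM Triacsin C.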
# % is set by controls: 0 for no effect and ±100 for the full control effect; potency is the fitted concentration of half-maximal effect.
Structure (SMILES),"lipid storage change, negative = inhibition",Potency
Cc1ccc2c(C)c(C(=O)Nc3nnc(C)s3)oc2c1,inconclusive: 13%,
Cc1ccccc1NCC(=O)c1ccc(Br)cc1,inconclusive: 1.99%,
O=C(O)CCCN1C(=O)C2C3c4ccccc4C(c4ccccc43)[C@@H]2C1=O (stereo not given in full),,"inconclusive: 0.184 µM [falling, partial curve]"
O=C(O)c1cc2c(cc1NC(=O)C1CCCC1)OCCO2,inconclusive: -7.18%,
OC(c1cccnc1)c1cccs1 (stereo not given),inconclusive: 23.2%,
COc1ccc(CCNC(=O)COC(=O)CSc2ccc([N+](=O)[O-])cc2)cc1OC,inconclusive: 47.9%,
Clc1ccc(N2CCN(c3cnc4ccccc4n3)CC2)cc1,inactive,
COc1ccccc1NC(=S)N(Cc1ccc(Cl)cc1)CC1CCC(C(=O)O)CC1 (stereo not given),inconclusive: 15.4%,
CN(C)c1nc(-c2ccccc2)cc(C(F)(F)F)c1C#N,inconclusive: -39.6%,
CCC(CC)c1nn2c(N)c(/C=C3\C(C)=Nc4ccccc43)c(=O)nc2s1,,"inconclusive: 1.84 µM [activator, single point]"
O=C(CSc1nnc(C2CC2)n1Cc1ccco1)NCC(F)(F)F,inconclusive: 15.5%,
O=C(CN1CCCC1)Nc1ccc(Oc2ccc(NC(=O)CN3CCCC3)cc2)cc1,inconclusive: -0.601%,
Cc1nc2nc(C)c(CCC(=O)N3CCN(c4ccccn4)CC3)c(C)n2n1,inconclusive: 0.618%,
O=C(CNC(=O)c1ccccc1)N/N=C/c1ccc([N+](=O)[O-])s1,inconclusive: -7.34%,
COCCNC(=O)CSc1nccn1Cc1ccc2c(c1)OCO2,,"inconclusive: 0.0058 µM [cytotoxic, full curve, poor fit]"
CCCCCOC(=O)CCN1C(=O)/C(=C2\SC(=S)N(CCC(=O)OCCCCC)C2=O)SC1=S,inactive,
CCN(c1ccccc1)S(=O)(=O)c1c(C)noc1C,inconclusive,
CC(C(=O)N1CCCCC1)N(C)CC(=O)Nc1ccc(Cl)cc1 (stereo not given),inconclusive: 24.7%,
Cc1cccc(N=C2Sc3nc4c(C)c(C)ccc4cc3CN2CCN2CCOCC2)c1,inconclusive: -7.48%,
Cc1cc(C)c(-c2csc(NC(=O)C3=NN(c4ccccc4)C(=O)CC3)n2)c(C)c1,inconclusive: -16.9%,
CCc1ccccc1NC(=O)/C(C#N)=C\c1ccc(Sc2ccccc2)o1,,"inconclusive: 29.1 µM [falling, single point]"
CCN1CCc2nc(SCC(=O)Nc3ccc(OC)cc3)c(C#N)cc2C1,,"inconclusive: 2.59 µM [activator, partial curve]"
O=C(COc1ccccc1)NNC(=S)NC(=O)c1ccc(Cl)cc1Cl,inactive,
CCn1ccnc1CN(C)Cc1cn(-c2cc(C)ccc2C)nc1-c1ccccc1,inconclusive: -38.9%,
COc1ccc(C)cc1S(=O)(=O)N1CCCC(C(=O)N2CCN(c3ccccc3F)CC2)C1 (stereo not given),inconclusive: 48.2%,
O=C(NNS(=O)(=O)c1ccc(F)cc1)c1cccc(O)c1,,"inconclusive: 0.13 µM [activator, full curve, poor fit]"
O=C(CN1C(=O)NC2(CCCC2)C1=O)N1CCN(c2ccccc2O)CC1,inconclusive,

Structure (SMILES),"lipid storage change, negative = inhibition",Potency
CC(C)(C)NC(=O)CCSc1nnc(-c2ccco2)o1,inconclusive: 8.42%,
OCCSc1nc(-c2ccccc2)nc2c1CCC2,inconclusive: 7.22%,
COc1cccc(NC(=O)c2oc3ccc(S(=O)(=O)N4CCOCC4)cc3c2C)c1,inactive,
CN(C)c1ccc(CNC(=O)CCc2ccc(S(=O)(=O)N3CCCCCC3)cc2)cc1,inconclusive,
Cc1occc1-c1nnc(SCC(=O)c2ccc(Cl)cc2)n1C,,"inconclusive: 29.1 µM [falling, single point]"
CN1CCN(c2cc(N3CCN(C(=O)c4ccco4)CC3)c3c4c(onc24)-c2ccccc2C3=O)CC1,inconclusive: -10.6%,
O=C(O)CCNc1cc2ccccc2cc1C(=O)O,inconclusive: 0.612%,
Cc1ccc(C(=O)N/C(=C\c2ccc(Cl)cc2)C(=O)NCCN2CCOCC2)cc1,,"inconclusive: 0.58 µM [falling, single point]"
CN1CCc2c(sc(NC(=O)c3ccc(S(=O)(=O)N4CCCC4)cc3)c2C(N)=O)C1,inconclusive: 0.429%,
O=C(C/C=N/OCc1ccc(Cl)cc1Cl)c1ccccc1,inconclusive: 39.4%,
N#Cc1ccc(/C=N/NC(=O)CCc2ccc(S(=O)(=O)N3CCOCC3)cc2)cc1,inconclusive: 14.4%,
COc1ccc(C(=O)NCCNc2ccc([N+](=O)[O-])cc2)cc1OC,inconclusive: -78.2%,
[O-]/C(=C(\C(=S)Nc1ccc(SC(F)F)cc1)[n+]1cccc(CO)c1)c1ccc(Cl)s1,inconclusive: -14.7%,
COC(=O)c1nc(N)sc1C(C)C,inconclusive: 6.16%,
Cc1cc(Cl)c2oc(C(=O)N(C)CC3CCOCC3)c(C)c2c1,inactive,
CC(C)CNC(=O)NC1C(NC(=O)NCC(C)C)N(C)C(=O)N1C (stereo not given),,"inconclusive: 4.11 µM [falling, full curve, poor fit]"
Cc1cc(C(=O)OCC(=O)c2ccc(Br)s2)no1,,"inconclusive: 3.26 µM [activator, single point]"
C=CCSc1ncnc2sc(C)c(C)c12,,"inconclusive: 2.59 µM [activator, partial curve]"
CSc1ccc(NC(=O)NCCN2CCc3ccccc3C2)cc1,inconclusive: 16.8%,
O=C(CN1CCCCC1)NCC(=O)Nc1ccc(F)c(F)c1F,inconclusive: 2.07%,
O=C(CN1CCN(c2ncccn2)CC1)Nc1ccccc1C(F)(F)F,inconclusive: -22.3%,
S=C(Nc1ccc(Cl)cc1)NC1CC2CCCC(C1)N2C1CCCC1 (stereo not given),inconclusive: 7.2%,
Nc1nc(CN2CCN(c3ccccc3F)CC2)nc(N2CCCc3ccccc32)n1,,"inconclusive: 0.0052 µM [falling, full curve, poor fit]"
COc1ccc([C@H]2[C@H](C(=O)OC(C)(C)C)N3N=Cc4ccccc4C3C23C(=O)c2ccccc2C3=O)c(OC)c1 (stereo not given in full),inconclusive: -18.7%,
CCOc1cccc(C=NCCc2ccc(OC)c(OC)c2)c1O,inconclusive: 5.51%,
CNC(=O)c1ccc(-c2ccc(F)cc2)s1,inconclusive: 13%,
CC(C)CCn1c(N2CCN(Cc3ccccc3)CC2)nc2c1c(=O)[nH]c(=O)n2C,,"inconclusive: 16.4 µM [activator, partial curve]"

Structure (SMILES),"lipid storage change, negative = inhibition",Potency
CCC(C(=O)NC1CCCC1)N(C(=O)c1snc(C(N)=O)c1N)c1ccc(OC)c(OC)c1 (stereo not given),,"inconclusive: 5.17 µM [falling, full curve]"
Cc1ccc(Oc2ccc(Cl)cc2NC(=O)c2ccc(F)cc2F)cc1,inconclusive: -99.8%,
CCCNS(=O)(=O)c1ccc(OC)c(Cl)c1Cl,inconclusive: 37%,
CCOc1ncccc1C(=O)Nc1nc(SC)ns1,,"inconclusive: 6.51 µM [rising, full curve]"
O=[N+]([O-])c1cccc(C2NCC(c3ccccc3Cl)c3c2[nH]c2ccccc32)c1 (stereo not given),inconclusive: 30.9%,
CC(=O)c1c(C)[nH]c(C(=O)NCc2ccc(F)cc2)c1C,inconclusive: 43.7%,
COc1ccccc1CNC(=O)C1Cc2ccccc2C(=O)O1 (stereo not given),inconclusive: 155%,
Cc1ccc(-n2ncc3c2ncn2c(-c4ccncc4)nnc32)cc1,inconclusive: -16.4%,
N#CNC(N)=Nc1cccc(Cl)c1,inconclusive: 82.5%,
Cn1c(=O)oc2cc(S(=O)(=O)NC(Cc3ccccc3)C(=O)N3CCCCC3)ccc21 (stereo not given),inconclusive: -10.3% [at 9.22 µM],
O=C(N/N=C/c1cn(-c2cccs2)nc1-c1ccccc1)c1ccccc1Cl,inconclusive: 29.1%,
Clc1ccccc1CN(Cc1ccccc1)c1ncnc2nc[nH]c12,,"inconclusive: 0.116 µM [falling, full curve, poor fit]"
COc1ccc(NC(C)=O)cc1S(=O)(=O)NCCc1ccccn1,,"inconclusive: 3.66 µM [activator, full curve]"
COc1ccc(/C=N/Nc2nnc(C)n2N)cc1OC,inconclusive: 5.13%,
COc1ccc(C)cc1NC(=O)CSc1nc2ccccc2nc1N1CC(C)OC(C)C1 (stereo not given),inconclusive: 17%,
COc1cc(Br)cc(/C=N/NC(=O)Cc2ccc(C(F)(F)F)cc2[N+](=O)[O-])c1O,,"inconclusive: 20.6 µM [falling, single point]"
O=C(NCCCNC(=O)c1ccco1)c1ccc(F)cc1,inconclusive: 38.3%,
CCOc1ccc(C(C(=O)NCC2CCCO2)N(Cc2cccnc2)C(=O)c2snc(C(N)=O)c2N)cc1 (stereo not given),inactive,
CCCOc1ccc(CNC(=O)Cn2c(=O)oc3ccccc32)cc1,inconclusive: 34.1%,
O=C(CN1CCCC1c1ccc2c(c1)OCCO2)NC(=O)Nc1ccccc1F (stereo not given),inconclusive,
Cn1cc(CN2CCCCC2c2ccccn2)c(-c2ccc3c(c2)OCCO3)n1 (stereo not given),inconclusive: 23.4%,
Cc1cccc(Cn2c(N(C)CCO)nc3c2c(=O)[nH]c(=O)n3C)c1,inactive,
Cc1ccccc1-n1ncc2c1CC(C)(C)CC2NC(=O)c1ccncc1 (stereo not given),,"inconclusive: 29.1 µM [activator, single point]"
CCOC(=O)N1CCC(N2C(=O)c3ccccc3C2Nc2c(C)cccc2C)CC1 (stereo not given),,"inconclusive: 3.26 µM [activator, single point]"
COC(=O)c1ccc(CNC(=O)c2ccc(OCC(=O)N3CCOCC3)c(OC)c2)cc1,inconclusive: 41.2%,
CCCCC(C(=O)NC1CCCC1)N(C(=O)c1snc(C(N)=O)c1N)c1ccc(OCC)cc1 (stereo not given),inconclusive: -37.4%,

# Part of the list above, as tab-separated lines:
Structure (SMILES)	lipid storage change, negative = inhibition	Potency
Cc1ccc2c(C)c(C(=O)Nc3nnc(C)s3)oc2c1	inconclusive: 13%	
Cc1ccccc1NCC(=O)c1ccc(Br)cc1	inconclusive: 1.99%	
O=C(O)CCCN1C(=O)C2C3c4ccccc4C(c4ccccc43)[C@@H]2C1=O (stereo not given in full)		inconclusive: 0.184 µM [falling, partial curve]
O=C(O)c1cc2c(cc1NC(=O)C1CCCC1)OCCO2	inconclusive: -7.18%	
OC(c1cccnc1)c1cccs1 (stereo not given)	inconclusive: 23.2%	
COc1ccc(CCNC(=O)COC(=O)CSc2ccc([N+](=O)[O-])cc2)cc1OC	inconclusive: 47.9%	
